Results: article PMC6499997, “SGIP1α functions as a selective endocytic adaptor for the internalization of synaptotagmin 1 at synapses” (Molecular Brain, 2019)
These are yes or no findings as the source states them, for the method shown. Binding seen in cells or lysates may run through a third protein. Some results given as binding are weak or reduced against the parent protein; the word gives no strength. Where a sequence is shown, tags or fusion partners need not be part of it.

By UniProt entry, the sequences of proteins in these tests, tags left out.
UniProt P21707: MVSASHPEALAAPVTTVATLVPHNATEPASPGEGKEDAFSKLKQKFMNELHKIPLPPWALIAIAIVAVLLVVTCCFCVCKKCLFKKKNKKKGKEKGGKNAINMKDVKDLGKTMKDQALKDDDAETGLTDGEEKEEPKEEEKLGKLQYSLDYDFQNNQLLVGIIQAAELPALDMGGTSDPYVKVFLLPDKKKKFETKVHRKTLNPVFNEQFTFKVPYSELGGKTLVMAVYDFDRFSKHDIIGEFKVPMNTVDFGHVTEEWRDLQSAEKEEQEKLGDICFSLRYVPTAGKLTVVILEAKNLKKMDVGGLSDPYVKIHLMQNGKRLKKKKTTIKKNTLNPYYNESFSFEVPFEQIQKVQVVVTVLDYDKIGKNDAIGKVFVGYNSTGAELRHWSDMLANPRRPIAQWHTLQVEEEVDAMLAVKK

Target: T1, GST-tagged SGIP1α (mouse) (UniProt Q8VD37)
T1 sequence: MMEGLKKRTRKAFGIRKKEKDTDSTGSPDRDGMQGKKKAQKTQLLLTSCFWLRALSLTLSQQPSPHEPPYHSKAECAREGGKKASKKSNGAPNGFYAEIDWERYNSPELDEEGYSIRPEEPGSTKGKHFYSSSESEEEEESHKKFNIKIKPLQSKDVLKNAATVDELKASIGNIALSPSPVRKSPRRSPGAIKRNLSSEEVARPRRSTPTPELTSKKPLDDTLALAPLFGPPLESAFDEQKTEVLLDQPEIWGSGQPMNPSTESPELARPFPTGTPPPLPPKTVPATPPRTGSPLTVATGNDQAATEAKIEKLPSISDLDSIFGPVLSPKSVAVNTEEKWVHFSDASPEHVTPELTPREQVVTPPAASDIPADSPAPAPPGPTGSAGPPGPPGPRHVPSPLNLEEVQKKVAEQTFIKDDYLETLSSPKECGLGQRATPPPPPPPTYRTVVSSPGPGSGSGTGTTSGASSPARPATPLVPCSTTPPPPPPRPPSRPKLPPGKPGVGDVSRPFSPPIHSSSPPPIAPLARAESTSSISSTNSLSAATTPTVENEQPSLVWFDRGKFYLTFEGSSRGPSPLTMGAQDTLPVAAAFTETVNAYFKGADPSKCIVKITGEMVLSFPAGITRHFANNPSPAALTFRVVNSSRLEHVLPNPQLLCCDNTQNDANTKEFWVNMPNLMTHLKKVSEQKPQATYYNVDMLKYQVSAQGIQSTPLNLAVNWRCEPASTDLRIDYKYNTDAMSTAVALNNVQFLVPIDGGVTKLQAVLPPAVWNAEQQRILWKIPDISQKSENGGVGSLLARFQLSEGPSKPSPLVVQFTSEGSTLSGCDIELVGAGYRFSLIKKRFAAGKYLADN
Assay: pull-down; purified GST-SGIP1α or GST-SGIP1α-μHD immobilised on glutathione-sepharose, incubated with rat hippocampal neuron lysate; bound proteins eluted by boiling, SDS-PAGE, Coomassie stain and blot with Syt1 antibody; only the target purified

**Q.** “synaptotagmin 1 (endogenous, rat hippocampal neurons) (from UniProt P21707 1-421)” was tested. Which binding did it give?
**A.** binds
